From patent publication US20250134806A1, “PHARMACEUTICAL COMPOSITION FOR DRY POWDER INHALATION AND PREPARATION METHOD THEREOF” (ASG INSPIRATION LABORATORY (SINGAPORE) PTE. LTD., priority 2023, published 2025)
At least one structure is not confirmed: it was looked up by name or label, or the drawing left a doubt.

Test: Shape of particles observed under the field of an electron microscope
Type: physicochemical

CN1CC(=O)N2[C@H](c3ccc4c(c3)OCO4)c3[nH]c4ccccc4c3C[C@@H]2C1=O [tadalafil, Tadalafil]
shape of particles: irregular form
